Values from PubChem BioAssay AID1224826 (NIAID, 2016).
Test: 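Knock-downs that raise or lower Tnf reporter signal after endotoxin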 (primary screen). Cell system: RAW264.7 G9 macrophages from mouse bearing reporters for p65 (GFP) and the Tnf promoter (mCherry). Reagents: siRNA pool against mouse genes, 100 nM. Time to read-out: 16 h of LPS stimulation, after 2 days of siRNA transfection. Conditions: bacterial lipopolysaccharide (Salmonella minnesota R595), 10 ng/ml. Measured: 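Nuclear mCherry signal of the Tnf promoter reporter measured by imaging after background removal, scaled to each plate median and turned into robust z-scores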. Scale: Tnf reporter robust z-score: higher = stronger Tnf promoter reporter signal after LPS. Hit rule: 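a well counts as active at a score of -1.3 or below (Tlr4 knock-down control median) or above 3 (raised signal); controls and wells holding fewer than 50 cells are excluded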. Meaning of the calls: active = Tnf reporter clearly lowered or raised; inactive = no clear change in Tnf reporter.
This is an unselected part of about 17,000 reagents tested. Over the whole deposit, about 1,110 (6.6%) are marked active. 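Active means lowered or raised reporter signal; replicate intensities are raw and not normalised per plate.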 A number with no mark means an inactive call. The numbers tell different reagents against one gene apart. Not all columns of the deposit are shown.

| Target gene | reagent no. | Tnf reporter robust z-score | fewer than 50 cells in well |
| --- | --- | --- | --- |
| C1qtnf1 (C1q and tumor necrosis factor related protein 1) | 1 | 0.54 | enough cells in well |
| P3h2 (prolyl 3-hydroxylase 2) | 1 | -0.53 | enough cells in well |
| Dhrs13 (dehydrogenase/reductase 13) | 1 | 0.17 | enough cells in well |
| Htr3a (5-hydroxytryptamine (serotonin) receptor 3A) | 1 | 0.36 | enough cells in well |
| Dpf3 (double PHD fingers 3) | 1 | -0.75 | enough cells in well |
| Arhgef10 (Rho guanine nucleotide exchange factor 10) | 1 | 2.21 | enough cells in well |
| Arl8a (ADP-ribosylation factor-like 8A) | 1 | -0.49 | enough cells in well |
| Lypd1 (Ly6/Plaur domain containing 1) | 1 | -1.16 | enough cells in well |
| Aldh3a1 (aldehyde dehydrogenase family 3, subfamily A1) | 1 | -0.08 | enough cells in well |
| Ccdc121 (coiled-coil domain containing 121) | 1 | 1.35 | enough cells in well |
| Ifnab (interferon alpha B) | 1 | -0.6 | enough cells in well |
| Wdr12 (WD repeat domain 12) | 1 | 0.46 | enough cells in well |
| Vps13a (vacuolar protein sorting 13A) | 1 | 3.23 (active) | enough cells in well |
| Slc35a5 | 1 | – | fewer than 50 cells per well; well left out of calls |
| E230015B07Rik (RIKEN cDNA E230015B07 gene) | 1 | 1.64 | enough cells in well |
| Ndrg1 (N-myc downstream regulated gene 1) | 1 | -0.81 | enough cells in well |
| Ndrg1 (N-myc downstream regulated gene 1) | 2 | -0.94 | enough cells in well |
| Prpf40b (pre-mRNA processing factor 40B) | 1 | 2.09 | enough cells in well |
| Msx2 (msh homeobox 2) | 1 | -0.81 | enough cells in well |
| Mapk3 (mitogen-activated protein kinase 3) | 1 | -0.72 | enough cells in well |
| Or4g7 (olfactory receptor family 4 subfamily G member 7) | 1 | -0.38 | enough cells in well |
| Il17f (interleukin 17F) | 1 | -0.69 | enough cells in well |
| Tlx1 (T cell leukemia, homeobox 1) | 1 | 0.88 | enough cells in well |
| Or9q2 (olfactory receptor family 9 subfamily Q member 2) | 1 | 3.12 (active) | enough cells in well |
| LOC243676 (retired record) | 1 | -0.52 | enough cells in well |
| Ociad1 (OCIA domain containing 1) | 1 | -0.59 | enough cells in well |
| Ninl (ninein-like) | 1 | -0.1 | enough cells in well |
| Amz2 (archaelysin family metallopeptidase 2) | 1 | -0.11 | enough cells in well |
| Or2h2c (olfactory receptor family 2 subfamily H member 2C) | 1 | 0.35 | enough cells in well |
| Col19a1 (collagen, type XIX, alpha 1) | 1 | 1.36 | enough cells in well |
| E2f2 (E2F transcription factor 2) | 1 | 2.11 | enough cells in well |
| E2f2 (E2F transcription factor 2) | 2 | 0.27 | enough cells in well |
| Adamts8 (ADAM metallopeptidase with thrombospondin type 1 motif 8) | 1 | 2.18 | enough cells in well |
| Pabpc6 (poly(A) binding protein, cytoplasmic 6) | 1 | – | fewer than 50 cells per well; well left out of calls |
| Psmc4 (proteasome (prosome, macropain) 26S subunit, ATPase, 4) | 1 | – | fewer than 50 cells per well; well left out of calls |
| Gtf2e2 | 1 | -0.15 | enough cells in well |
| Gdpd4 (glycerophosphodiester phosphodiesterase domain containing 4) | 1 | 0.1 | enough cells in well |
| Ofcc1 (orofacial cleft 1 candidate 1) | 1 | -0.99 | enough cells in well |
| Dhx34 (DExH-box helicase 34) | 1 | -1.04 | enough cells in well |
| Naip1 (NLR family, apoptosis inhibitory protein 1) | 1 | 2.21 | enough cells in well |
